From the supplement of paper PMC10849652
The other results are listed elsewhere or left out.

Protein sequences, listed by entry. Tags and fused reporters are not part of them. Lines headed by an entry give the natural chain unless they say otherwise; changes in a name come on top.
UniProt Q19AV6: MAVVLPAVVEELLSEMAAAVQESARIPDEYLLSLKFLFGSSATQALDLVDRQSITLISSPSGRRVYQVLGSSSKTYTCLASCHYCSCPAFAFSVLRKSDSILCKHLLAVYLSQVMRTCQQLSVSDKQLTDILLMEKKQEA
UniProt J3KR51, whole entry, looked up: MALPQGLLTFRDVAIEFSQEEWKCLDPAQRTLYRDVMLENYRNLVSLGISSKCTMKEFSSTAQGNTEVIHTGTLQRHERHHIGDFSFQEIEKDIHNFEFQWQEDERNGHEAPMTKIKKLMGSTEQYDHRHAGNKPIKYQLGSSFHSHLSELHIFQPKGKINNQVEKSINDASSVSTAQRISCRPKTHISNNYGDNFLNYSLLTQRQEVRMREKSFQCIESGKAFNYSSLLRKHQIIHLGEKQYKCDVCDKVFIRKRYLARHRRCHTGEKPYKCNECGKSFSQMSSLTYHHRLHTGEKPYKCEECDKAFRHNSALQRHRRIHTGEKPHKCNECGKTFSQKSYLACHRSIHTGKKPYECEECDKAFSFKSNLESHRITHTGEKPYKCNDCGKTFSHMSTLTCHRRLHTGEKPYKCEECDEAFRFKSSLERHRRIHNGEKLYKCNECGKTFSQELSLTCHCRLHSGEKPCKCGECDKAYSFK
UniProt Q03936: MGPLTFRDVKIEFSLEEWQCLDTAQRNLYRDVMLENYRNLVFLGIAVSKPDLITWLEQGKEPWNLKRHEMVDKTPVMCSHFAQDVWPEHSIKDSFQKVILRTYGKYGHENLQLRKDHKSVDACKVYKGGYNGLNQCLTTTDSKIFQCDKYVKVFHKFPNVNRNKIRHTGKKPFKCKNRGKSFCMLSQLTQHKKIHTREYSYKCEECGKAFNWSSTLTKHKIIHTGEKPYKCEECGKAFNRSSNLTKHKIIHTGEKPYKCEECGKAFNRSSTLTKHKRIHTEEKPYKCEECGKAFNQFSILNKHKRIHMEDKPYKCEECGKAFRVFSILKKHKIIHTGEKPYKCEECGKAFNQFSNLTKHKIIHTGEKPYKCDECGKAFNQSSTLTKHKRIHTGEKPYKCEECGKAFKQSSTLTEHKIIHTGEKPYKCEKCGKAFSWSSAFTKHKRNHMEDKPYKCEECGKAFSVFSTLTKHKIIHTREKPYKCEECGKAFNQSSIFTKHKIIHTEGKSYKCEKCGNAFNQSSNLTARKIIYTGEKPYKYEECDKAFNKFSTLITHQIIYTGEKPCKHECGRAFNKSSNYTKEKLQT
UniProt Q9UEG4: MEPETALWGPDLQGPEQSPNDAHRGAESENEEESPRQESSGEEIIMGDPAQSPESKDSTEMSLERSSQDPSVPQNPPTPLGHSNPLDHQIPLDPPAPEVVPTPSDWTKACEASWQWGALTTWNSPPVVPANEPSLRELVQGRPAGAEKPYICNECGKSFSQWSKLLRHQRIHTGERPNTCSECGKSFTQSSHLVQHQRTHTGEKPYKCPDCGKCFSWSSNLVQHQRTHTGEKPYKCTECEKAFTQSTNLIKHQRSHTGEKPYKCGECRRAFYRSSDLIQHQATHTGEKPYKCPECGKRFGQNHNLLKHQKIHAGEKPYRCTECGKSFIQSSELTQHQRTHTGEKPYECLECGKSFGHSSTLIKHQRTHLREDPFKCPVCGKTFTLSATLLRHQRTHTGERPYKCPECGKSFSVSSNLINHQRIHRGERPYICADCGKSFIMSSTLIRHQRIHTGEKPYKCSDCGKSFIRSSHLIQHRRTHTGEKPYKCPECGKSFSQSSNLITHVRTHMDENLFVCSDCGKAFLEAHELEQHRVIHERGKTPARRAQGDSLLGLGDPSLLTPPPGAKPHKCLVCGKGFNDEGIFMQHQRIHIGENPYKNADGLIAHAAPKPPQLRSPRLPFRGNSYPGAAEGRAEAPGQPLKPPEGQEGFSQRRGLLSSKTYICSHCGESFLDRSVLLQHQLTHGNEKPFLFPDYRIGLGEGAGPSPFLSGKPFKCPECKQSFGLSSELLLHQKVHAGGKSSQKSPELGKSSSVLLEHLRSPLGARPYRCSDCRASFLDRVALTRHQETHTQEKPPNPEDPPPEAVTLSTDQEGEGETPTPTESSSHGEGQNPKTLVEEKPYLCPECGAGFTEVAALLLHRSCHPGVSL
UniProt P36508: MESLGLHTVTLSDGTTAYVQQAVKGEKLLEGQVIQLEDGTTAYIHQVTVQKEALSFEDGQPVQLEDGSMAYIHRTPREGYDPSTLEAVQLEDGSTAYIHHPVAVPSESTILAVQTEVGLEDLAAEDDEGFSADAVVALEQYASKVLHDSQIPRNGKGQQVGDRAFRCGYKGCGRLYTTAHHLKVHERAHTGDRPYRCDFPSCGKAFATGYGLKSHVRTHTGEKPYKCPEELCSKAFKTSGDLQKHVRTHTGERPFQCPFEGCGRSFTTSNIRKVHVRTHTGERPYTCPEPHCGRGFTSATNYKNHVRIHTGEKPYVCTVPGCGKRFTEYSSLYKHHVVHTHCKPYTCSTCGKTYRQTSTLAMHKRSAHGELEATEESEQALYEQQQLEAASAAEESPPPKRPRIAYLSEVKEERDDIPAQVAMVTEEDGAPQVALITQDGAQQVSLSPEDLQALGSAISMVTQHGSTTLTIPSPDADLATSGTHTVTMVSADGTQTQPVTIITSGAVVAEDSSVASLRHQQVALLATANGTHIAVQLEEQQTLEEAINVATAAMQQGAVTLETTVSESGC
UniProt P52739: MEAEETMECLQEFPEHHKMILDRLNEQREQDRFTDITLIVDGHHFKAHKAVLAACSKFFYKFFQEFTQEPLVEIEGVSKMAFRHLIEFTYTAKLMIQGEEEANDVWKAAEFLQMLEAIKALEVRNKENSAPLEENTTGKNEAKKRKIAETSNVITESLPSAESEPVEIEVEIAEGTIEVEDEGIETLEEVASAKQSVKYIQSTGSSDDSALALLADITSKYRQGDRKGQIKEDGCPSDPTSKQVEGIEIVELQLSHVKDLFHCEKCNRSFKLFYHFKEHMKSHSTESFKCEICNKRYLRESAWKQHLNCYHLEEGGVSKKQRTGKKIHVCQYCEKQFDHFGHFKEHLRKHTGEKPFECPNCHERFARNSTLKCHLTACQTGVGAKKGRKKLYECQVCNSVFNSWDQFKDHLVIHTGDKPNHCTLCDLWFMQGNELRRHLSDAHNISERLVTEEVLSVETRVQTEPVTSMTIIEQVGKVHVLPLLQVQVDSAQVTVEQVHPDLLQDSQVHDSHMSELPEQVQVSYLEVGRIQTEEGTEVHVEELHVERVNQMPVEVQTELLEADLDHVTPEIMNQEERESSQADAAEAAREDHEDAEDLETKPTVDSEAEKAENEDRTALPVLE
UniProt Q9UJ78: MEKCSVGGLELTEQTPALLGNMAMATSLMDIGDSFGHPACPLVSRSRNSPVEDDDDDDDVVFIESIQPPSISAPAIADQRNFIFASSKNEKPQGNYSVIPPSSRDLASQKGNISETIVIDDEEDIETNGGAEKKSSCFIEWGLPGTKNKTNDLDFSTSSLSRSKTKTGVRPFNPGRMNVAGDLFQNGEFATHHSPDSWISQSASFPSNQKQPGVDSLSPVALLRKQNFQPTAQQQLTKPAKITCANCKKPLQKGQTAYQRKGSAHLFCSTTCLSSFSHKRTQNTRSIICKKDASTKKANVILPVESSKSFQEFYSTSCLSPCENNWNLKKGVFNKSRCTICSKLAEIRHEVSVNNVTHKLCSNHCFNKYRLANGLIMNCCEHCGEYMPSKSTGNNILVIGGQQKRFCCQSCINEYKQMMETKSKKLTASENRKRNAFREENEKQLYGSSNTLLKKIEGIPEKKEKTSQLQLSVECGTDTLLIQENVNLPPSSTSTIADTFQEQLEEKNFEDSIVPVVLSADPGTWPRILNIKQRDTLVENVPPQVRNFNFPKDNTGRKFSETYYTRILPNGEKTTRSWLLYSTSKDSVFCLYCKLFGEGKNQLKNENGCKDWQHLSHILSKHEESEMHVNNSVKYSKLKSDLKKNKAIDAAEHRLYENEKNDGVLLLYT
UniProt Q86YH2: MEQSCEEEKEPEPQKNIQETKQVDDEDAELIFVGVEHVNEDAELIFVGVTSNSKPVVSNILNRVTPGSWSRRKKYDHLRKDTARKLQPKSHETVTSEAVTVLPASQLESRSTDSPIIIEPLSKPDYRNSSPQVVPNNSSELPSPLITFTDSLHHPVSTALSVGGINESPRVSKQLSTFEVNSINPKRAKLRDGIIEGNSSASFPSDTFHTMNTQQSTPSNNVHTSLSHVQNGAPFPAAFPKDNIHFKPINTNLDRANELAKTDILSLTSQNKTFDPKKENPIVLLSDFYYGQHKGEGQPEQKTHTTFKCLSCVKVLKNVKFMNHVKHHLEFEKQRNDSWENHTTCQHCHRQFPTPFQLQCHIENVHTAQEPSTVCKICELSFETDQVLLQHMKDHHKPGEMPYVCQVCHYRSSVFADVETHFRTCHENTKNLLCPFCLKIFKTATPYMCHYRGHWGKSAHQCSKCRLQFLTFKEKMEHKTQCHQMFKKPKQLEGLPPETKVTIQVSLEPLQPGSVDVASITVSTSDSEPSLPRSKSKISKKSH
UniProt Q9Y5V0: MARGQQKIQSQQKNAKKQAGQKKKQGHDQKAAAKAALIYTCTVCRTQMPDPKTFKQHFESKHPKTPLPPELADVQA
UniProt Q9UID6: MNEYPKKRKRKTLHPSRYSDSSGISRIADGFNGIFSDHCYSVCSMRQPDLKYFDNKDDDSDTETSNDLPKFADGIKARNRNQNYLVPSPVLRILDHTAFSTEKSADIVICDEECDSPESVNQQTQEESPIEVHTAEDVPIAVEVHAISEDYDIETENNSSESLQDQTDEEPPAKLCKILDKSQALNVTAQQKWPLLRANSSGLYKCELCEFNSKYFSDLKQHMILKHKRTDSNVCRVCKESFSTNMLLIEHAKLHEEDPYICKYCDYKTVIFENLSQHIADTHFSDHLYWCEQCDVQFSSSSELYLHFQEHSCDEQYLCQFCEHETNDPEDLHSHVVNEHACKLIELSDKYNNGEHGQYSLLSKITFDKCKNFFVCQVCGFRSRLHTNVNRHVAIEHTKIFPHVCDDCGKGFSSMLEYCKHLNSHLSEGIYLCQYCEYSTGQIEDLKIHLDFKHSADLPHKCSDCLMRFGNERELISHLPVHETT
UniProt O43670: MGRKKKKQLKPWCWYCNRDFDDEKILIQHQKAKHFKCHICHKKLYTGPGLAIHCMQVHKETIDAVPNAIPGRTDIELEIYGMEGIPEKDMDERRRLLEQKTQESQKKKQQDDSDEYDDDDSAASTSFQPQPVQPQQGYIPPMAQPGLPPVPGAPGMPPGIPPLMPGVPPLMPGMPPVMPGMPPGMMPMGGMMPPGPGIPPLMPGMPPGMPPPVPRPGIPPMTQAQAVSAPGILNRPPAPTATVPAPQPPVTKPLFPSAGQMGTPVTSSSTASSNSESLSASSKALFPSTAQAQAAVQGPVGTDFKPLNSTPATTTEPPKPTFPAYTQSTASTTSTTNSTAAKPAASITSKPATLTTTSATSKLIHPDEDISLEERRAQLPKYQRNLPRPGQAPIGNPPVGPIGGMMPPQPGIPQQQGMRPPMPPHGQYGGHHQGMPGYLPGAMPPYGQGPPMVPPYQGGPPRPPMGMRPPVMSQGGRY
UniProt O75844: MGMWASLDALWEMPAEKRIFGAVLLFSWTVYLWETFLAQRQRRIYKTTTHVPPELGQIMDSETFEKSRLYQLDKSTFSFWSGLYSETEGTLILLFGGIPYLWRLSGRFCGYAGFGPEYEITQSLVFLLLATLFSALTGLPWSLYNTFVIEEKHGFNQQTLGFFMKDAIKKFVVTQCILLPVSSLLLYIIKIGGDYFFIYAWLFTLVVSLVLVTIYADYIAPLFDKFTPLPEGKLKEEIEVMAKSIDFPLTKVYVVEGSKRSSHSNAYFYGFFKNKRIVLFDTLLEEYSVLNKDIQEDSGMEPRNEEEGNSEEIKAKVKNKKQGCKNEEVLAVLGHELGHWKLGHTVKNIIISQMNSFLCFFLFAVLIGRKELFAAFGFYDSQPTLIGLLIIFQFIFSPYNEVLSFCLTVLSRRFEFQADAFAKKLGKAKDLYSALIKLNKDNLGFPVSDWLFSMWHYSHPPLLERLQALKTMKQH
UniProt P17029: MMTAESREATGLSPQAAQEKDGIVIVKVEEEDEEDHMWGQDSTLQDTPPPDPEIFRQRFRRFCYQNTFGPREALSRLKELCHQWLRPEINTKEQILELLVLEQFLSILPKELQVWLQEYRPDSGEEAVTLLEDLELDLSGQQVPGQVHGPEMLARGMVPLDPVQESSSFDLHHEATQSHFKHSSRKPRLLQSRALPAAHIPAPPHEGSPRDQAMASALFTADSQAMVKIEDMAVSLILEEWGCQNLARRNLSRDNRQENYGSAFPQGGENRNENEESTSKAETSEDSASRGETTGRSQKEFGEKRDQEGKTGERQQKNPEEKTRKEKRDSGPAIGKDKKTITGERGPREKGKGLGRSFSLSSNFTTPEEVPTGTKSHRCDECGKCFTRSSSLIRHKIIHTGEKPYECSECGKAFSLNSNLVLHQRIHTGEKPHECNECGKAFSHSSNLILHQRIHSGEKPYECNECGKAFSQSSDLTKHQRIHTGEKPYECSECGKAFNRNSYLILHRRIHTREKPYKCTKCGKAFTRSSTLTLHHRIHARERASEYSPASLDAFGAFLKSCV

compound: NCC(=O)Nc1ccc(-n2nc(C(F)(F)F)cc2-c2ccc3c(ccc4ccccc43)c2)cc1; test: log2 fold change, soluble protein after heating vs DMSO (PISA); higher = thermal stabilisation; K562 lysate, 10 uM; active = over 0.2 and 3.5 SD of the protein, either way, in both replicates (recomputed)
Summary of the method: (§1)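 K562 pellets were dounce-homogenised in PBS pH 7.4 containing 1 mM MgCl2, and the crude extract, at 1 mg/mL protein, was exposed to 10 μM compound for 30 min. Aliquots were heated for 3 min across 48°C-58°C, pooled, brought to 0.5% NP-40 at 4°C and spun at 21,000xg for 90 min, with the supernatant taken as soluble protein. TMTpro 16plex LC-MS/MS with equalised channel sums quantified that protein. Values are log-two fold changes in thermal stability relative to solvent controls, taken from duplicates.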

Row | Target | log2 fold change
1 | ZNF609 (UniProt O15014) | inactive: 0.184
2 | ZSWIM7 (UniProt Q19AV6) | inactive: 0.188
3 | ZNF316 (UniProt A6NFI3) | inactive: 0.12
4 | ZNF692 isoform 5 (UniProt Q9BU19) | inactive: -0.085
5 | ZNF672 (UniProt Q499Z4) | inactive: -0.026
6 | ZNF525 (UniProt J3KR51) | inactive: 0.066
7 | ZNF8 (UniProt P17098) | inactive: -0.001
8 | ZNF655 isoform 2 (UniProt Q8N720) | inactive: -0.141
9 | ZNF92 (UniProt Q03936) | inactive: 0.09
10 | ZNF629 (UniProt Q9UEG4) | inactive: -0.034
11 | ZNF76 (UniProt P36508) | inactive: 0.083
12 | ZNF852 (UniProt Q6ZMS4) | inactive: 0.056
13 | ZHX3 (UniProt Q9H4I2) | inactive: -0.196
14 | ZMYM3 (UniProt Q14202) | inactive: -0.013
15 | ZW10 (UniProt O43264) | inactive: 0.016
16 | ZNF22 (UniProt P17026) | inactive: -0.133
17 | ZNF131 (UniProt P52739) | inactive: 0.038

Row | Target | log2 fold change
18 | ZMYM5 (UniProt Q9UJ78) | inactive: 0.103
19 | ZNF280B (UniProt Q86YH2) | inactive: -0.03
20 | ZNF706 (UniProt Q9Y5V0) | inactive: -0.003
21 | ZMYND8 isoform 19 (UniProt Q9ULU4) | inactive: 0.059
22 | ZNF445 (UniProt P59923) | inactive: 0.027
23 | ZNF639 (UniProt Q9UID6) | inactive: -0.067
24 | ZNF207 isoform 2 (UniProt O43670) | inactive: 0.061
25 | ZNF326 (UniProt Q5BKZ1) | inactive: 0.044
26 | ZNF207 isoform 4 (UniProt O43670) | inactive: 0.021
27 | ZMPSTE24 (UniProt O75844) | inactive: -0.002
28 | ZNF622 (UniProt Q969S3) | inactive: 0.007
29 | ZNF845 (UniProt Q96IR2) | inactive: -0.074
30 | ZNRD2 (UniProt G3V1B8) | inactive: -0.064
31 | ZKSCAN1 (UniProt P17029) | inactive: 0.005
32 | ZNFX1 (UniProt Q9P2E3) | inactive: 0.143
33 | ZKSCAN4 (UniProt Q969J2) | inactive: -0.046

compound: O=C(CCCCCCC(=O)Nc1ccccc1)NO [vorinostat]; test: as above
Summary of the method: as §1

Row | Target | log2 fold change
34 | ZNF609 (UniProt O15014) | active: -0.309
35 | ZSWIM7 (UniProt Q19AV6) | inactive: -0.188
36 | ZNF316 (UniProt A6NFI3) | inactive: 0.004
37 | ZNF672 (UniProt Q499Z4) | inactive: 0.275
38 | ZNF525 (UniProt J3KR51) | inactive: -0.4
39 | ZNF8 (UniProt P17098) | inactive: -0.137
40 | ZNF92 (UniProt Q03936) | inactive: -0.145
41 | ZNF629 (UniProt Q9UEG4) | inactive: 0.077
42 | ZNF76 (UniProt P36508) | inactive: 0.193
43 | ZNF852 (UniProt Q6ZMS4) | inactive: 0.153
44 | ZMYM3 (UniProt Q14202) | inactive: -0.161
45 | ZW10 (UniProt O43264) | inactive: -0.228
46 | ZNF22 (UniProt P17026) | inactive: 0.192
47 | ZNF131 (UniProt P52739) | inactive: -0.037
48 | ZMYM5 (UniProt Q9UJ78) | inactive: -0.275
49 | ZNF280B (UniProt Q86YH2) | inactive: -0.374
50 | ZNF706 (UniProt Q9Y5V0) | inactive: 0.139
51 | ZMYND8 isoform 19 (UniProt Q9ULU4) | active: -0.224
52 | ZNF445 (UniProt P59923) | inactive: 0.209
53 | ZNF639 (UniProt Q9UID6) | inactive: 0.136
54 | ZNF207 isoform 2 (UniProt O43670) | inactive: -0.039
55 | ZNF326 (UniProt Q5BKZ1) | inactive: 0.016
56 | ZNF207 isoform 4 (UniProt O43670) | inactive: 0.102
57 | ZMPSTE24 (UniProt O75844) | inactive: 0.114
58 | ZNF622 (UniProt Q969S3) | inactive: 0.074
59 | ZNF845 (UniProt Q96IR2) | inactive: -0.297
60 | ZNRD2 (UniProt G3V1B8) | inactive: 0.005
61 | ZKSCAN1 (UniProt P17029) | inactive: -0.165
62 | ZNFX1 (UniProt Q9P2E3) | inactive: -0.296
63 | ZKSCAN4 (UniProt Q969J2) | inactive: -0.285

compound: O=C(O)c1ccc2c(c1)nc(Nc1cccc(Cl)c1)c1ccncc12 [silmitasertib]; test: as above
Summary of the method: as §1

Row | Target | log2 fold change
64 | ZNF609 (UniProt O15014) | inactive: 0.041
65 | ZSWIM7 (UniProt Q19AV6) | inactive: -0.211
66 | ZNF316 (UniProt A6NFI3) | inactive: -0.047
67 | ZNF672 (UniProt Q499Z4) | inactive: 0.067
68 | ZNF525 (UniProt J3KR51) | inactive: 0.199
69 | ZNF8 (UniProt P17098) | inactive: 0.001
70 | ZNF92 (UniProt Q03936) | inactive: 0.047
71 | ZNF629 (UniProt Q9UEG4) | inactive: -0.024
72 | ZNF76 (UniProt P36508) | inactive: -0.007
73 | ZNF852 (UniProt Q6ZMS4) | inactive: -0.084
74 | ZMYM3 (UniProt Q14202) | inactive: -0.01
75 | ZW10 (UniProt O43264) | inactive: 0.019
76 | ZNF22 (UniProt P17026) | inactive: -0.087
77 | ZNF131 (UniProt P52739) | inactive: 0.042
78 | ZMYM5 (UniProt Q9UJ78) | inactive: 0.077
79 | ZNF280B (UniProt Q86YH2) | inactive: -0.077
80 | ZNF706 (UniProt Q9Y5V0) | inactive: 0.003
81 | ZMYND8 isoform 19 (UniProt Q9ULU4) | inactive: 0.029
82 | ZNF445 (UniProt P59923) | inactive: -0.213
83 | ZNF639 (UniProt Q9UID6) | inactive: -0.073
84 | ZNF207 isoform 2 (UniProt O43670) | inactive: -0.084
85 | ZNF326 (UniProt Q5BKZ1) | inactive: -0.053
86 | ZNF207 isoform 4 (UniProt O43670) | inactive: -0.02
87 | ZMPSTE24 (UniProt O75844) | inactive: -0.034
88 | ZNF622 (UniProt Q969S3) | inactive: -0.014
89 | ZNF845 (UniProt Q96IR2) | active: 0.364
90 | ZNRD2 (UniProt G3V1B8) | inactive: -0.024
91 | ZKSCAN1 (UniProt P17029) | inactive: 0.006
92 | ZNFX1 (UniProt Q9P2E3) | inactive: 0.069
93 | ZKSCAN4 (UniProt Q969J2) | inactive: 0.074
